Results on four molecules are retold here after PMC7336374.

By UniProt entry, the sequences of proteins in these tests, tags left out. Where a name states a change or a piece, a line headed by the entry shows the natural chain unless it says otherwise.
UniProt Q5SMQ9: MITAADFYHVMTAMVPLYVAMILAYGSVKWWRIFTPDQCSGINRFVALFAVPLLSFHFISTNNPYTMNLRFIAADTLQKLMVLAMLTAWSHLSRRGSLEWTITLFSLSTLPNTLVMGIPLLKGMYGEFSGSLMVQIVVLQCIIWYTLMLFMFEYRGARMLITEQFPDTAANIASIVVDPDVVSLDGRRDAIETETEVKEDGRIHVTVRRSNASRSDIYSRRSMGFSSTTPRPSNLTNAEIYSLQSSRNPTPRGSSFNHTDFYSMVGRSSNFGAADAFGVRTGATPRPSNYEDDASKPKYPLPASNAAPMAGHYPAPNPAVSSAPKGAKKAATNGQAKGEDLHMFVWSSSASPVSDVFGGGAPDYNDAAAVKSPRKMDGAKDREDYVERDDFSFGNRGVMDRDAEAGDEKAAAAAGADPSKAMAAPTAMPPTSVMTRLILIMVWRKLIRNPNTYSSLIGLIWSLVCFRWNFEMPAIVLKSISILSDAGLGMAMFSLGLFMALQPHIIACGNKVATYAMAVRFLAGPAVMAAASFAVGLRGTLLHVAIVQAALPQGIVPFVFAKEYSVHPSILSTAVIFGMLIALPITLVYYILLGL
UniProt Q67UL3: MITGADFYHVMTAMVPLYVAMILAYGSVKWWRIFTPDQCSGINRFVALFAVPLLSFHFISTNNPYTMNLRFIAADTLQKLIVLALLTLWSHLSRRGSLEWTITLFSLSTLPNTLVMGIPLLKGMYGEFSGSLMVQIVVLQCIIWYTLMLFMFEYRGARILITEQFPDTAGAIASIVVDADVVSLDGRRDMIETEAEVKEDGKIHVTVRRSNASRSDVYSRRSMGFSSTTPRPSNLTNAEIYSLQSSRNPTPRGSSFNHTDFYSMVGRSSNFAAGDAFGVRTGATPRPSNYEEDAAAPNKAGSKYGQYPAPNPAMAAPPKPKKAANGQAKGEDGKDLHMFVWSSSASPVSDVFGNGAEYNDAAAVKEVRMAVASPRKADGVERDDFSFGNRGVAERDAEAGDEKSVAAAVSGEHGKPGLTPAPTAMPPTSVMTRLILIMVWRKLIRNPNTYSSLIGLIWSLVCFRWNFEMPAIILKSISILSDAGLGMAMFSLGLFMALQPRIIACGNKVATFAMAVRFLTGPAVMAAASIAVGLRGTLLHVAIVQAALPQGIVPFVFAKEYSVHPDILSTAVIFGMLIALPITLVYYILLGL

Results are given in words; binding and its absence hold for the method and conditions named. Binding calls can cover weak binding; strength is not graded here. Tags and fused reporters may be left off the sequences shown. For part of these data: Binding seen in cells or lysates may run through a third protein.

Test [1] concerns the target GST-tagged OsPIN1a (rice (Oryza sativa L.)) (UniProt Q5SMQ9). The test is described as follows: pull-down; in vitro pull-down of HIS-tagged OsPID and GST-tagged partners expressed in E. coli BL21; which was held is not told.
Test [2] deals with LOC_Os06g12580, yeast two-hybrid fusion (rice (Oryza sativa L.)). Nature of the test: two-hybrid; OsPID in pGADT7, partners in pGBKT7, co-transformed into yeast strain AH109; growth on synthetic dropout medium without Trp, Leu, Ade and His at 28°C.
Test [3] concerns the target LOC_Os04g31910, yeast two-hybrid fusion (rice (Oryza sativa L.)). The test is described as above.
Test [4] has as its target LOC_Os02g27030, yeast two-hybrid fusion (rice (Oryza sativa L.)). The test is described as above.
Test [5] deals with OsPIN1a, BiFC fusion in SCYCE (rice (Oryza sativa L.)) (UniProt Q67UL3). Nature of the test: split reporter; BiFC: SCYNE(R)::OsPID with SCYCE fusions, Agrobacterium GV3101 with the p19 strain infiltrated into 4- to 6-week-old tobacco leaves; SCFP signal by confocal microscopy.
Test [6] addresses GFP-tagged OsPIN1a (rice (Oryza sativa L.)) (UniProt Q67UL3). The test is described as follows: co-IP; FLAG-tagged OsPID and GFP-tagged partners co-transformed into rice protoplasts; which was precipitated is not told.

B1: HIS-tagged OsPINOID (OsPID) (protein, UniProt Q2QM77 1-484)
chain: MVAAVRAPVKPEMVELSPAAMERYSSDADTTAPNSSLSSAASSTGSLARCSSLSRLSFDCSPSAAVAAAATSCSPPRASVLLRPHRSGDVAWAAIRAASTTSAAPLGPRDFKLVRRIGGGDIGTVYLCRLRSSPERESPCMYAMKVVDRRAVARKQKLGRAAAEKRILRQLDHPFLPTLFADFDATPHFSCAVMEFCPGGDLHSLRHRMPSRRFPLPSARFYAAEVLLAIEYLHMMGIVYRDLKPENVLIRADGHIMLTDFDLSLQSTTSPSLDGDTDTDDEASGGASCFPDHLLRFKRRRNAVAAPRPRFVAEPVDARSCSFVGTHEYVAPEVASGGAHGAAVDWWAYGVFLYELIYGRTPFAGATNEATLRNIVRRPLAFPSGSGSCGPADADARDLIARLLAKDPAARLGSRRGAADVKSHPFFKSLNLALLRSSRPPVVPGAGAGAAPLHRSQSCKAAPTTPPPPTTTKPANATARFDLF
As for B1, the binding entry in test [1] is “binds”.

B2: OsPINOID (OsPID), yeast two-hybrid fusion (protein, UniProt Q2QM77 1-484)
chain: B1 chain
Regarding B2, the binding result in test [2], in test [3] and in test [4] was “binds” throughout.

B3: OsPINOID (OsPID), BiFC fusion in SCYNE(R) (protein, UniProt Q2QM77 1-484)
chain: B1 chain
For the molecule B3, the binding result in test [5] is on record as “binds”.

B4: 3xFLAG-tagged OsPINOID (OsPID) (protein, UniProt Q2QM77 1-484)
chain: B1 chain
Consider B4, for which the binding entry in test [6] is given as “binds”.
